Results deposited as PubChem BioAssay AID504791 (Drosophila RNAi Screening Center, 2011)
The screen tested about 23,000 reagents; shown is an unselected part of those with a known target gene and a result. In the full data, 199 (0.86%) are marked active. 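Plate-scaled ratios behind the calls are not deposited; printed light signals are raw; many rows marked increased or decreased are still called inactive.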 Not stated in the record: the direction of the score.

Assay: 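Genes whose knock-down strengthens or weakens small-RNA reporter silencing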 (primary screen)
Cells: Drosophila S2-derived reporter cells
Knock-down reagent: long dsRNA against Drosophila genes, about 150-250 ng dsRNA per well (siRNA assay); about 80-120 ng (miRNA assay)
Timing: about 5 days (siRNA assay); about 4 days (miRNA assay)
Conditions: copper sulfate induction of reporters: 25 µM (siRNA assay); 200 mM stated (miRNA assay), 1-2 days before reading
Read-out: 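Dual luciferase assay: Renilla to firefly signal ratio in each well, scaled to the mean ratio of its plate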
Hit rule: 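First-pass picks had plate-scaled ratios over 1.5 for the siRNA assay, over 1.6 for the miRNA assay, or under 0.6; two distinct dsRNAs had to score alike on retest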

Coq9 (Coenzyme Q9) [DRSC22913]
- stable assay Renilla, run 1 (luminescence): 2260
- stable assay firefly, run 1 (luminescence): 2.67e5
- activity call: inactive

Sdb (SAXO downstream of blistered) [DRSC06272]
- stable assay Renilla, run 1 (luminescence): 5671
- stable assay firefly, run 1 (luminescence): 3.54e5
- activity call: inactive

Sdb (SAXO downstream of blistered) [DRSC06273]
- stable assay Renilla, run 1 (luminescence): 5847
- stable assay firefly, run 1 (luminescence): 3.63e5
- activity call: inactive

Sdb (SAXO downstream of blistered) [DRSC07155]
- stable assay Renilla, run 1 (luminescence): 9086
- stable assay firefly, run 1 (luminescence): 4.67e5
- activity call: inactive

CG2889 [DRSC18236]
- stable assay Renilla, run 1 (luminescence): 5251
- stable assay firefly, run 1 (luminescence): 3.73e5
- activity call: inactive

rb (ruby) [DRSC18826]
- stable assay Renilla, run 1 (luminescence): 6067
- stable assay firefly, run 1 (luminescence): 3.24e5
- activity call: inactive

CG15027 [DRSC19608]
- stable assay Renilla, run 1 (luminescence): 5378
- stable assay firefly, run 1 (luminescence): 3.55e5
- activity call: inactive

2 successive entries from above, quoted:
CG2889 [DRSC18236]
- stable assay Renilla, run 1 (luminescence): 5251
- stable assay firefly, run 1 (luminescence): 3.73e5
- activity call: inactive

rb (ruby) [DRSC18826]
- stable assay Renilla, run 1 (luminescence): 6067
- stable assay firefly, run 1 (luminescence): 3.24e5
- activity call: inactive

The results go on.
CG12849 [DRSC04129]
- stable assay Renilla, run 1 (luminescence): 6228
- stable assay firefly, run 1 (luminescence): 3.95e5
- activity call: inactive

Hus1-like [DRSC12353]
- stable assay Renilla, run 1 (luminescence): 7275
- stable assay firefly, run 1 (luminescence): 4.47e5
- activity call: inactive

CG34268 [DRSC07874]
- stable assay Renilla, run 1 (luminescence): 4944
- stable assay firefly, run 1 (luminescence): 4.59e5
- activity call: inactive

Prosalpha4 (Proteasome alpha4 subunit) [DRSC20271]
- stable assay Renilla, run 1 (luminescence): 6051
- stable assay firefly, run 1 (luminescence): 3.15e5
- activity call: inactive

SrpRbeta (Signal recognition particle receptor beta) [DRSC21668]
- stable assay Renilla, run 1 (luminescence): 8712
- stable assay firefly, run 1 (luminescence): 4.91e5
- activity call: inactive
